Taken from: PubChem BioAssay AID1259254 (NCATS, 2017)
In all, the deposit lists about 59,000 reagents; below is a part drawn at random. About 1,550 of them (2.6%) count as active. 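G2 share is only a proxy for re-replication; each gene was hit by three separate siRNAs, and active genes were retested.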 The numbers tell different reagents against one gene apart. Not all columns of the deposit are shown. Reagent sequences are not shown. The record does not give: the amount of reagent.

Aim: 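Finding genes that stop cells copying their DNA twice in one cycle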 (primary screen)
System: human HCT116 colorectal cancer cells
Reagent: single siRNA against human genes
Timing: 3 days
Measurement: 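Imaged Hoechst DNA stain sorts each cell into a cycle phase by DNA amount; per plate, G2 fraction set to 0% for non-targeting and 100% for GMNN siRNA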
Reading the numbers: G2 robust z-score: higher = more G2 cells, more excess DNA replication
Call rule: 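An siRNA counts as active if its G2 robust z-score lies at least 5 MADs above the screen median; here such calls match roughly 38% of GMNN control or more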

G2 robust z-score, by gene knocked down and reagent
ATG13 (GeneID 9776): #1 0.83 inactive; #2 1.08 inactive; #3 1.08 inactive
CYRIA (GeneID 81553): #1 -0.816 inactive; #2 -0.448 inactive; #3 -0.0891 inactive
ZNF382 (GeneID 84911): #1 1.88 inactive; #2 4.76 inactive; #3 -0.793 inactive
DGCR8 (GeneID 54487): #1 -0.903 inactive; #2 0.917 inactive; #3 -0.21 inactive
VCAM1 (GeneID 7412): #1 -0.407 inactive; #2 -0.0226 inactive; #3 -0.276 inactive
ATAD1 (GeneID 84896): #1 -1.13 inactive; #2 0.265 inactive; #3 4.95 inactive
COL2A1 (GeneID 1280): #1 -0.5 inactive; #2 -0.545 inactive; #3 -0.39 inactive
AQP8 (GeneID 343): #1 -1.63 inactive; #2 -0.267 inactive; #3 0.468 inactive
LACTBL1 (GeneID 646262): #1 -0.305 inactive; #2 -0.853 inactive; #3 3.42 inactive
ANKS1B (GeneID 56899): #1 0.6 inactive; #2 1.09 inactive; #3 -0.998 inactive
IMPDH2 (GeneID 3615): #1 -1.68 inactive; #2 2.4 inactive; #3 2.26 inactive
MYH13 (GeneID 8735): #1 -0.277 inactive; #2 4.71 inactive; #3 -0.548 inactive
ABCB4 (GeneID 5244): #1 0.655 inactive; #2 -0.627 inactive; #3 1.98 inactive
QRFPR (GeneID 84109): #1 -0.749 inactive; #2 0.159 inactive; #3 0.244 inactive
GHRL (GeneID 51738): #1 -0.367 inactive; #2 -0.788 inactive; #3 -0.256 inactive

A portion of the results above:
G2 robust z-score, by gene knocked down and reagent
MYH13 (GeneID 8735): #3 -0.548 inactive
ABCB4 (GeneID 5244): #1 0.655 inactive; #2 -0.627 inactive; #3 1.98 inactive
QRFPR (GeneID 84109): #1 -0.749 inactive; #2 0.159 inactive

Next records follow.
G2 robust z-score, by gene knocked down and reagent
MYLK3 (GeneID 91807): #1 -0.287 inactive; #2 5.74 active; #3 -0.215 inactive
BUB1B (GeneID 701): #1 5.8 active; #2 3.26 inactive; #3 1.76 inactive
VSIG8 (GeneID 391123): #1 -0.193 inactive; #2 -1.25 inactive; #3 0.657 inactive
TEFM (GeneID 79736): #1 -0.366 inactive; #2 0.0892 inactive; #3 -0.795 inactive
PGRMC1 (GeneID 10857): #1 0.602 inactive; #2 -0.601 inactive; #3 -0.39 inactive
GPR25 (GeneID 2848): #1 -0.0579 inactive; #2 -0.634 inactive; #3 -0.364 inactive
DBR1 (GeneID 51163): #1 -1.12 inactive; #2 6.11 active; #3 -0.127 inactive
OR2F1 (GeneID 26211): #1 -0.386 inactive; #2 -0.548 inactive; #3 -0.821 inactive
